In publication PMC7265341, “Quantifying CDK inhibitor selectivity in live cells” (Nature Communications, 2020):
Several values for one entry are separate records, joined by “and”; a condition that tells them apart may be missing. Equal entries are not always repeated. Further values from the same series stand in other lists.

The chains behind the UniProt entries cited, without tags or fusion partners.
UniProt Q00534, whole entry: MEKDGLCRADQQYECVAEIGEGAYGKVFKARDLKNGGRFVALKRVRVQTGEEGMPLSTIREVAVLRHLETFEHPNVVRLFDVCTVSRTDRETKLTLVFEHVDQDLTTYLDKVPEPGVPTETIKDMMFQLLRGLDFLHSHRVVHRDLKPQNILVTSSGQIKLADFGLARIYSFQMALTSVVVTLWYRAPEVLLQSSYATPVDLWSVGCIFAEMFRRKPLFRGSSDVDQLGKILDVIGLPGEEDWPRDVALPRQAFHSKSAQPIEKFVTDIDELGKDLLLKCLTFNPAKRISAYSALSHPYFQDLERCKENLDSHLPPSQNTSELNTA

Biological target: CDK6 (Homo sapiens, UniProt Q00534)
Experiment: Intracellular residence time by cellular washout, CDK6;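 note: NanoBRET cellular washout in live cells: compound preincubated 2 h at 37 °C, then removed, energy transfer probe association tracked over time versus DMSO vehicle, rising BRET indicating target release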
Type: binding
Conditions: Panel B

COCCN1CCN(Cc2ccc(-c3n[nH]c4c3C(=O)c3c(NC(=O)NN5CCOCC5)cccc3-4)cc2)CC1 [RGB286638]
CDK6 occupancy (%) over time after compound washout (Time (Min) 38.9753): 66.3063 and 62.7586
CDK6 occupancy (%) over time after compound washout (Time (Min) 41.9753): 66.2602 and 65.9459 and 64.2529
CDK6 occupancy (%) over time after compound washout (Time (Min) 44.9758): 65.8537 and 65.4955 and 64.8276
CDK6 occupancy (%) over time after compound washout (Time (Min) 47.9761): 65.935 and 65.6757 and 62.9885
CDK6 occupancy (%) over time after compound washout (Time (Min) 50.9766): 65.4471 and 65.4955 and 62.7586
CDK6 occupancy (%) over time after compound washout (Time (Min) 53.9771): 65.4471 and 65.1351 and 65.2874
CDK6 occupancy (%) over time after compound washout (Time (Min) 56.9772): 65.3658 and 64.9549 and 60
CDK6 occupancy (%) over time after compound washout (Time (Min) 59.9777): 65.935 and 64.3243 and 61.3793
CDK6 occupancy (%) over time after compound washout (Time (Min) 62.9781): 65.2845 and 65.1351 and 63.2184
CDK6 occupancy (%) over time after compound washout (Time (Min) 65.9785): 65.4471 and 65.3153 and 60.5747
CDK6 occupancy (%) over time after compound washout (Time (Min) 68.9792): 64.9594 and 65.2252 and 60.5747
CDK6 occupancy (%) over time after compound washout (Time (Min) 71.9792): 65.2845 and 65.0451 and 59.7701
CDK6 occupancy (%) over time after compound washout (Time (Min) 74.9799): 66.5854 and 64.7748 and 60.1149
CDK6 occupancy (%) over time after compound washout (Time (Min) 77.9802): 66.1789 and 63.1531 and 60.4598
CDK6 occupancy (%) over time after compound washout (Time (Min) 80.9806): 65.6098 and 62.2522 and 61.2644
CDK6 occupancy (%) over time after compound washout (Time (Min) 83.9813): 65.935 and 62.4324 and 59.4253
CDK6 occupancy (%) over time after compound washout (Time (Min) 86.9817): 65.2845 and 62.0721 and 57.1264
CDK6 occupancy (%) over time after compound washout (Time (Min) 89.9825): 66.5854 and 60.991 and 58.046
CDK6 occupancy (%) over time after compound washout (Time (Min) 92.9826): 66.8293 and 61.1712 and 59.6552
CDK6 occupancy (%) over time after compound washout (Time (Min) 95.9831): 67.2358 and 60.991 and 61.3793
CDK6 occupancy (%) over time after compound washout (Time (Min) 98.9837): 66.748 and 60.9009 and 57.2414
CDK6 occupancy (%) over time after compound washout (Time (Min) 101.984): 66.9106 and 60.3604 and 57.8161
CDK6 occupancy (%) over time after compound washout (Time (Min) 104.984): 67.3984 and 60.6306 and 59.1954
CDK6 occupancy (%) over time after compound washout (Time (Min) 107.985): 67.2358 and 58.6487 and 58.6207
CDK6 occupancy (%) over time after compound washout (Time (Min) 110.985): 67.4797 and 58.4685 and 60.3448
CDK6 occupancy (%) over time after compound washout (Time (Min) 113.986): 66.9106 and 60.991 and 56.3218
CDK6 occupancy (%) over time after compound washout (Time (Min) 116.986): 68.2114 and 57.1171 and 56.4368
CDK6 occupancy (%) over time after compound washout (Time (Min) 119.987): 66.8293 and 56.6667 and 57.931
CDK6 occupancy (%) over time after compound washout (Time (Min) 122.987): 68.1301 and 56.1261 and 57.4713
CDK6 occupancy (%) over time after compound washout (Time (Min) 125.988): 68.1301 and 56.5766 and 52.7586
CDK6 occupancy (%) over time after compound washout (Time (Min) 128.988): 67.561 and 56.1261 and 54.4828
CDK6 occupancy (%) over time after compound washout (Time (Min) 131.988): 68.374 and 56.5766 and 52.7586
CDK6 occupancy (%) over time after compound washout (Time (Min) 134.989): 68.6179 and 57.7478 and 57.3563
CDK6 occupancy (%) over time after compound washout (Time (Min) 137.989): 68.6179 and 60.7207 and 55.1724
CDK6 occupancy (%) over time after compound washout (Time (Min) 140.99): 68.2927 and 64.8649 and 57.4713
CDK6 occupancy (%) over time after compound washout (Time (Min) 143.99): 67.8862 and 65.8559 and 58.2759
CDK6 occupancy (%) over time after compound washout (Time (Min) 146.99): 68.5366 and 66.3063 and 51.1494
CDK6 occupancy (%) over time after compound washout (Time (Min) 149.991): 68.2927 and 67.3874 and 57.7011
CDK6 occupancy (%) over time after compound washout (Time (Min) 152.992, listed as RGB-286638): 68.0488 and 66.5766 and 56.2069
CDK6 occupancy (%) over time after compound washout (Time (Min) 155.992): 68.5366 and 67.6577 and 47.3563
CDK6 occupancy (%) over time after compound washout (Time (Min) 158.992): 69.1057 and 66.5766 and 51.6092
CDK6 occupancy (%) over time after compound washout (Time (Min) 161.993): 68.374 and 66.8469 and 53.5632
CDK6 occupancy (%) over time after compound washout (Time (Min) 164.993): 69.0244 and 67.3874 and 56.8965
CDK6 occupancy (%) over time after compound washout (Time (Min) 167.994): 68.7805 and 66.7568 and 57.7011
CDK6 occupancy (%) over time after compound washout (Time (Min) 170.994): 68.0488 and 66.3063 and 50.1149
CDK6 occupancy (%) over time after compound washout (Time (Min) 173.995): 69.2683 and 67.2973 and 47.0115
CDK6 occupancy (%) over time after compound washout (Time (Min) 176.995, listed as RGB-286638): 69.6748 and 67.3874 and 59.5402
CDK6 occupancy (%) over time after compound washout (Time (Min) 179.995): 68.8618 and 66.9369 and 53.1035
CDK6 occupancy (%) over time after compound washout (Time (Min) 182.996): 68.1301 and 67.6577 and 55.8621
CDK6 occupancy (%) over time after compound washout (Time (Min) 185.996): 68.6992 and 66.7568 and 57.0115
CDK6 occupancy (%) over time after compound washout (Time (Min) 188.996): 69.0244 and 66.3964 and 53.7931
CDK6 occupancy (%) over time after compound washout (Time (Min) 191.996): 69.3496 and 66.3964 and 60.3448
CDK6 occupancy (%) over time after compound washout (Time (Min) 194.996): 68.5366 and 66.1261 and 58.8506
CDK6 occupancy (%) over time after compound washout (Time (Min) 197.996): 68.0488 and 65.2252 and 56.5517
CDK6 occupancy (%) over time after compound washout (Time (Min) 200.996): 68.9431 and 65.8559 and 54.4828
CDK6 occupancy (%) over time after compound washout (Time (Min) 203.996): 69.1057 and 66.1261 and 51.6092
CDK6 occupancy (%) over time after compound washout (Time (Min) 206.996): 68.0488 and 64.8649 and 55.8621
CDK6 occupancy (%) over time after compound washout (Time (Min) 209.996): 68.5366 and 65.3153 and 60.8046
CDK6 occupancy (%) over time after compound washout (Time (Min) 212.996): 68.0488 and 65.4955 and 54.2529
CDK6 occupancy (%) over time after compound washout (Time (Min) 215.996): 67.0732 and 64.1441 and 57.3563
CDK6 occupancy (%) over time after compound washout (Time (Min) 218.996): 68.1301 and 66.036 and 53.6782
CDK6 occupancy (%) over time after compound washout (Time (Min) 221.996): 67.0732 and 64.5946 and 49.0805
CDK6 occupancy (%) over time after compound washout (Time (Min) 224.996): 67.3171 and 64.7748 and 58.046
CDK6 occupancy (%) over time after compound washout (Time (Min) 227.996): 66.6667 and 63.964 and 55.2874
CDK6 occupancy (%) over time after compound washout (Time (Min) 230.996): 66.748 and 63.964 and 53.4483
CDK6 occupancy (%) over time after compound washout (Time (Min) 233.996): 66.5041 and 63.4234 and 55.0575
